Here are results for one molecule from patent US20240101684A1 (AIMED BIO, published 2024).

Amino acid sequences for entries named in this document (tags omitted). A change or cut given only in a name is not applied to a line headed by its entry.
UniProt P22607: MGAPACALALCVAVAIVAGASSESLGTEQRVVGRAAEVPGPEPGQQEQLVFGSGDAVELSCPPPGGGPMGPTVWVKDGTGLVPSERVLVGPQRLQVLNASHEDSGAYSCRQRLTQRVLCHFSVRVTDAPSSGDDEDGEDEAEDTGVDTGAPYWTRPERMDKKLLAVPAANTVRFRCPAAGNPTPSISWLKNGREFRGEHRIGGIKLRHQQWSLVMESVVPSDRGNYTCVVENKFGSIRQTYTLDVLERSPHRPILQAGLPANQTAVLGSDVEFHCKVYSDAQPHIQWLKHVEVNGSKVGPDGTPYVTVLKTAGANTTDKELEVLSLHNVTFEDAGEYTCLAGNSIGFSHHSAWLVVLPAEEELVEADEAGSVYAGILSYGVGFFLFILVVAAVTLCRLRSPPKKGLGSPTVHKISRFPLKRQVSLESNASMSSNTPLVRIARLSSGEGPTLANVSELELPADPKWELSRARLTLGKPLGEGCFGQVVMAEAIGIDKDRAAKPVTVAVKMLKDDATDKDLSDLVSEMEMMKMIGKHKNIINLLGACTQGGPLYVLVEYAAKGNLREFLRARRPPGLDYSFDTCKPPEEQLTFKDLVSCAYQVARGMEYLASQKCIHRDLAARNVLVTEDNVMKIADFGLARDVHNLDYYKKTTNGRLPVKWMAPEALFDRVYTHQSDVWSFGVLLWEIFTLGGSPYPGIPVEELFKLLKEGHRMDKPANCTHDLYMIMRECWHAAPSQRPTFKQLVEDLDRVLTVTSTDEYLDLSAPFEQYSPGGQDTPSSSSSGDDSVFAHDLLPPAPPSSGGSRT

No constants are given. Whether binding was seen depends on the method and setting. A result given as binding can be weak or reduced; the word gives no strength.

The test has as its target human FGFR3 IIIc recombinant protein (766-FR-050, R&D) (human) (UniProt P22607). The test is described as follows: SPR (Biacore), hFGFR3-iiic immobilised on the chip, antibody injected.

B1: FS301 (antibody, V domains shown)
VH: EVQLLESGGGLVQPGGSLRLSCAASGFTFSNYAIHWVRQAPGKGLEWVSSIIPISGTANYAQKFQGRFTISRDNSKNTLYLQMNSLRAEDTAVYYCSRGGYGFDYWGQGTLVTVSS
VL: EIVLTQSPGTLSLSPGERATLSCRASQSISTFLNWYQQKPGQAPRLLIYDATNRATGIPDRFSGSGSGTDFTLTISRLEPEDFAVYYCQQANSFPLTFGQGTKVEIK
On to B1, for which the binding result is “binds”.
